Paper PMC12054630
These are yes or no findings as the source states them, for the method shown. Binding seen in cells or lysates may run through a third protein. Some binding calls cover weakened binding; strength is not graded here.

Protein sequences, listed by entry. Tags and fused reporters are not part of them.
UniProt Q8BH43: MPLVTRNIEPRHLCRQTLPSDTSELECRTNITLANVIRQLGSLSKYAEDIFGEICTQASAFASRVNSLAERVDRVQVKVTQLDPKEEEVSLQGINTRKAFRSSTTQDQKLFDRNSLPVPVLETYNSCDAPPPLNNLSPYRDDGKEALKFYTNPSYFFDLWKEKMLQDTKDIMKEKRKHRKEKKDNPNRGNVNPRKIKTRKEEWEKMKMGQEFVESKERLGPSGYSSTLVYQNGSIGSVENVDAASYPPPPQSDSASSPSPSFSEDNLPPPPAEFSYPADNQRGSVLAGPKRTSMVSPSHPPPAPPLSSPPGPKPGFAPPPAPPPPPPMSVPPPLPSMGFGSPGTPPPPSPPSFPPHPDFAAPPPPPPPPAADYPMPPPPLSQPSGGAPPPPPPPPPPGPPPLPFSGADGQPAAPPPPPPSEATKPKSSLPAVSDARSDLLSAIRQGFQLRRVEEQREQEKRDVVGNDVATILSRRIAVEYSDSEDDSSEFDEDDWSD
UniProt Q9Y6W5: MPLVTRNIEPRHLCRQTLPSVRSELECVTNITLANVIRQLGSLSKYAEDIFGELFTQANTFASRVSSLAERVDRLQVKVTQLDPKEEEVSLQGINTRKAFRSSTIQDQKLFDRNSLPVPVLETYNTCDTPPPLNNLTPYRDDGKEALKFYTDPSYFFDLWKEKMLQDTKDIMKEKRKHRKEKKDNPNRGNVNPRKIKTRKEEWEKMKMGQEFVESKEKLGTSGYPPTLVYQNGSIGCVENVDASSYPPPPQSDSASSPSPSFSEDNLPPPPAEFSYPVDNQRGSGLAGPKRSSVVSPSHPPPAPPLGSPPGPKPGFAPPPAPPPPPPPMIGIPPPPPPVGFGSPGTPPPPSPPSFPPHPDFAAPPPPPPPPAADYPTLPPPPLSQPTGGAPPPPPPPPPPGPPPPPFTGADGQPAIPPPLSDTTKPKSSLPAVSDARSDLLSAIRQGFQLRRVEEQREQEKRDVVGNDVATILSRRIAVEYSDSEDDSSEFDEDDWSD

Columns and labels:
[1] = target: T1, Sorbin and SH3 Domain Containing 2 (SORBS2), human iPS-derived cardiomyocytes (human (endogenous in hiPS-CMs)) (UniProt O94875); assay: co-IP; endogenous SORBS2 precipitated with a SORBS2 bait antibody from highly pure hiPS-CMs; western blot for WAVE2
T1 sequence: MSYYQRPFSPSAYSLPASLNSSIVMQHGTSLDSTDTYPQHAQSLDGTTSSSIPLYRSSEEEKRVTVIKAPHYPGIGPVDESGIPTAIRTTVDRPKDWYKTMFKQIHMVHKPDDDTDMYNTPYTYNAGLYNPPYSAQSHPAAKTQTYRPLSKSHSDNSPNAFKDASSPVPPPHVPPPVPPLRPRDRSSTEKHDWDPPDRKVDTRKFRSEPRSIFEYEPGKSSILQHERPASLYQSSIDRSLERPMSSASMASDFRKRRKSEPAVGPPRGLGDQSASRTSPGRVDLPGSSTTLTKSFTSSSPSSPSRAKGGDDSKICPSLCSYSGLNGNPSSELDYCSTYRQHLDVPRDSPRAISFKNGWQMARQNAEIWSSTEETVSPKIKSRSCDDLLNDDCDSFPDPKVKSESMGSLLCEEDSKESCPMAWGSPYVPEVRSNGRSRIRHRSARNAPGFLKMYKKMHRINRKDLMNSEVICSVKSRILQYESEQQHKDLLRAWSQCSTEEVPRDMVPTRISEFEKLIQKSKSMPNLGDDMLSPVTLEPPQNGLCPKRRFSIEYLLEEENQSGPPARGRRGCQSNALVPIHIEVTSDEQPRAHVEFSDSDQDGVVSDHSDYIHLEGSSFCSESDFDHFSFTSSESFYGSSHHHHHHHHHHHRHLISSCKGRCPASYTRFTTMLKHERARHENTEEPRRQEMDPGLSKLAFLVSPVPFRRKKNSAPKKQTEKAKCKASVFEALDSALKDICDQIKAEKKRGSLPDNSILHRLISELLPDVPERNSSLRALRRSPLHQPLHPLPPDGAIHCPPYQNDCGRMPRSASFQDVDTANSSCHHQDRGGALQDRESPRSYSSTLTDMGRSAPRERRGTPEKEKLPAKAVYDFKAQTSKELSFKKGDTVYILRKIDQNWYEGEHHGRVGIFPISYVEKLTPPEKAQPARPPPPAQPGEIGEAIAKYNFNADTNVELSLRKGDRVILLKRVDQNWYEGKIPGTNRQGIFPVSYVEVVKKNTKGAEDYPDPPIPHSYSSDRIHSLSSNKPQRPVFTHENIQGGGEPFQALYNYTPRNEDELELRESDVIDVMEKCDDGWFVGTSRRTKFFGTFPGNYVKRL

[2] = target: WAVE2, cardiac tissue (mouse (endogenous in cardiac tissue)) (UniProt Q8BH43); assay: co-IP; reversed pull-down: WAVE2 bait antibody on cardiac tissue lysate; SORBS2 detected

binding [1] | binding [2] | Molecule
binds |  | WAVE2, human iPS-derived cardiomyocytes (from UniProt Q9Y6W5 1-498)
 | binds | Sorbin and SH3 Domain Containing 2 (SORBS2), mouse heart (protein, UniProt Q3UTJ2 1-1180) MNTDSGGCARKRAAMSVTLTSVKRVQSSPNLLAAGRESQSPDSAWRSYNDRNPETLNGDATYSSLAAKGFRSVRPNLQDKRSPTQSQITINGNSGGAVSPVSYYQRPFSPSAYSLPASLNSSIIMQHGRSLDSAETYSQHAQSLDGTMGSSIPLYRSSEEEKRVTVIKAPHYPGIGPVDESGIPTAIRTTVDRPKDWYKTMFKQIHMVHKPGLYNSPYSAQSHPAAKTQTYRPLSKSHSDNGTDAFKEVPSPVPPPHVPPRPRDQSSTLKHDWDPPDRKVDTRKFRSEPRSIFEYEPGKSSILQHERPVSIYQSSIDRSLERPSSSASMAGDFRKRRKSEPAVGPLRGLGDQSSSRTSPGRADLPGSSSTFTKSFISSSPSSPSRAQGGDDSKMCPPLCSYSGLNGTPSGELECCNAYRQHLDVPGDSQRAITFKNGWQMARQNAEIWSSTEETVSPKIKSRSCDDLLNDDCDSFPDPKTKSESMGSLLCEEDSKESCPMTWASPYIQEVCGNSRSRLKHRSAHNAPGFLKMYKKMHRINRKDLMNSEVICSVKSRILQYEKEQQHRGLLHGWSQSSTEEVPRDVVPTRISEFEKLIQKSKSMPNLGDEMLSPITLEPPQNGLCPKRRFSIESLLEEETQVRHPSQGQRSCKSNTLVPIHIEVTSDEQPRTHMEFSDSDQDGVVSDHSDYVHVEGSSFCSESDFDHFSFTSSESFYGSSHHHHHHHHHHRHLISSCKGRCPASYTRFTTMLKHERAKHENMDRPRRQEMDPGLSKLAFLVSPVPFRRKKILTPQKQTEKAKCKASVVEALDSALKDICDQIKAEKRRGSLPDNSILHRLISELLPQIPERNSSLHALKRSPMHQPFHPLPPDGASHCPLYQNDCGRMPHSASFPDVDTTSNYHAQDYGSALSLQDHESPRSYSSTLTDLGRSASRERRGTPEKEKLPAKAVYDFKAQTSKELSFKKGDTVYILRKIDQNWYEGEHHGRVGIFPISYVEKLTPPEKAQPARPPPPVQPGEIGEAIAKYNFNADTNVELSLRKGDRIILLKRVDQNWYEGKIPGTNRQGIFPVSYVEVVKRNAKGAEDYPDPPLPHSYSSDRIYTLSSNKPQRPGFSHENIQGGGEPFQALYNYTPRNEDELELRESDVVDVMEKCDDGWFVGTSRRTKFFGTFPGNYVKRL
